{"source": "paper PMC11325555", "about": "“Interaction of Bisphenol A and Its Analogs with Estrogen and Androgen Receptor from Atlantic Cod (Gadus morhua)” (Environmental Science & Technology, 2024)", "biological_target": "T1, Atlantic cod estrogen receptor alpha (gmEra) LBD (Gadus morhua, UniProt U5ILH7)", "T1 sequence (U5ILH7 170-455)": "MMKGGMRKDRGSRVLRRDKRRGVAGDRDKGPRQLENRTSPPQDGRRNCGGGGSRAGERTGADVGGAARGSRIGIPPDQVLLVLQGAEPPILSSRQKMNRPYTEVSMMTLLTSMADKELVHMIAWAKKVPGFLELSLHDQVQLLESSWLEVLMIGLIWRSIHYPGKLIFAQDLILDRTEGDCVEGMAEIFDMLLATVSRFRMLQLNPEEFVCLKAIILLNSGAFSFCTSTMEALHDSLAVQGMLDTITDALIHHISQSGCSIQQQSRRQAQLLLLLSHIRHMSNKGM", "assay": "Luciferase reporter gene assay, gmEra antagonism (antiestrogenic activity), coexposure with 3 nM EE2", "format": "cell-based", "procedure": "Ligand activation of gmEra and gmAra was studied with a luciferase reporter gene assay in COS-7 cells transiently transfected with the pCMX-GAL4(DBD)-gmEra(LBD) or pCMX-GAL4(DBD)-gmAra(LBD) plasmid by using the TransIT-LT1 reagent (TransIT-LT1 Transfection Reagent, Mirus). Cells were seeded into 96-well plates (5000 cells/well) and incubated for 24 h before cotransfection with the plasmid mixture (100 ng/well). The plasmid mixture contained GAL4-UAS luciferase reporter plasmid (tk-(MH100)x4 luc), the pCMX-GAL4(DBD)-gmEra(LBD) or pCMX-GAL4(DBD)-gmAra(LBD) receptor plasmids (2:1 reporter:receptor plasmid mass ratio), and a plasmid constitutively producing the β-galactosidase enzyme used for normalization of transfection efficiency (pCMV- β-Gal). […] The maximum DMSO/methanol concentrations in the exposure wells were 0.5% (v/v) in DMEM medium without phenol red (Sigma-Aldrich). After exposure, cells were lysed, and luciferase and beta-galactosidase activities were measured as luminescence and absorbance (420 nm) after the addition of luciferin and ONPG substrates, respectively, using an Enspire Multimode plate reader (PerkinElmer, Waltham, Massachusetts, USA). […]", "data": [{"molecule": "CC/C(=C(\\c1ccccc1)c1ccc(OCCN(C)C)cc1)c1ccccc1", "note": "[tamoxifen, reference compound]", "values": [{"measurement": "IC50", "value": 1.5, "unit": "nM"}]}]}
